According to article PMC7819943, “Rice protein-binding microarrays: a tool to detect cis-acting elements near promoter regions in rice”:
The other results are listed elsewhere or left out.

The sequences below were run against T1, OsSMF1 (Oryza sativa, UniProt Q6ZLB0 1-436) (assay: protein-binding microarray (RPBM); PBS, 2% BSA, 51.3 ng/ul salmon testes DNA, 50 uM zinc acetate, 200 nM TF, 25 C, 1 h; high values mean tight binding). Settings: protein: recombinant; tags: N-terminal polyhistidine and DsRed monomer fusion (pET32a); chain copies: 2; label: CyDye5-dUTP incorporated in the synthesized complementary strand; 3' TTTTT single-stranded linker to array surface; dsDNA, one strand shown.
T1 sequence: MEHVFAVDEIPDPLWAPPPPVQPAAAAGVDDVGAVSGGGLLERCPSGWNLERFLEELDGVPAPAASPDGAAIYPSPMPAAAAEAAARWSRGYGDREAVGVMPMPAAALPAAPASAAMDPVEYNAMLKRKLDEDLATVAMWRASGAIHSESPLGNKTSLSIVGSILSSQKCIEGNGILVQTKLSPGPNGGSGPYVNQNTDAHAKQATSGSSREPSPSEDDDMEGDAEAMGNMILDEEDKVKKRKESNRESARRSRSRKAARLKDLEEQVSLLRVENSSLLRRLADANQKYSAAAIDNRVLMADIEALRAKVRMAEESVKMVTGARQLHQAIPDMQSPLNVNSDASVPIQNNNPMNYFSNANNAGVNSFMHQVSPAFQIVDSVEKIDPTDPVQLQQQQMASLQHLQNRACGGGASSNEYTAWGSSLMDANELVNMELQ
Procedure, shortened: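 Binding signal is defined as the fluorescence intensity of each feature in arbitrary units, read on an Axon 4000B scanner. Transcription factors with N-terminal polyhistidine and DsRed fusions came from E. coli BL21-CodonPlus and were purified on Ni–NTA. They were incubated at 200 nM for 1 h at 25 °C on a custom Agilent array that had been made double-stranded with Cy5-dUTP, with 50 µM zinc acetate present, and the array was washed.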
“ACCAACGGCCCGAGTCCGACACACGTCTCACGCACGAGCACGGAGTCACCTAGTGCAG” was tested, and the binding signal was 3910 fluorescence intensity (a.u.).
For “TGAGTTATGCTGTATACACATAATCTGTTGTTTCTCTAAACGGAGTCACCTAGTGCAG”, the binding signal was 3860 fluorescence intensity (a.u.).
For “TATTGGGTATTCCCATGGAAATGGTTGGTTTCGTGCTCTGCGGAGTCACCTAGTGCAG”, the binding signal was 3900 fluorescence intensity (a.u.).
In the case of “GTAAGAATTGGCTGTTAGATTGGCTATAAATGAATTGGAGCGGAGTCACCTAGTGCAG”, the binding signal is reported as 50800 fluorescence intensity (a.u.).
“GGAGACCATCGCCCCTGTTCTCGTCGTCATCGCGGAGGTTCGGAGTCACCTAGTGCAG” was tested, and the binding signal was 4210 fluorescence intensity (a.u.).
In the case of “AAAGGGAAGTTAATGGGTACGAGGAAGGATGACGTGGCGGCGGAGTCACCTAGTGCAG”, the binding signal is reported as 29000 fluorescence intensity (a.u.).
“AGAAGCCCACCACCACGCGCGGAGCGGCCGAGGAGGCCTCCGGAGTCACCTAGTGCAG” was tested, and the binding signal was 4450 fluorescence intensity (a.u.).
For “TTCCTCGGATTCTTGGCGCGCATGACGTCGTAGACCCGGACGGAGTCACCTAGTGCAG”, the binding signal was 5300 fluorescence intensity (a.u.).
In the case of “CCTCACGAGCTTATCTAAGCCTGTCGCAATCTTGCTTCGGCGGAGTCACCTAGTGCAG”, the binding signal is reported as 3510 fluorescence intensity (a.u.).
For “CAACAACACCAGCTCAGCCCATCGGAACCGAAACGCAGCGCGGAGTCACCTAGTGCAG”, the binding signal was 3270 fluorescence intensity (a.u.).
“TCCCATGCCGCGCTCGTCGATCCCCAAATCTCGCCGCCGGCGGAGTCACCTAGTGCAG” was tested, and the binding signal was 4020 fluorescence intensity (a.u.).
For “AAAACAAATATAGAGGAGACAGCTCATTTTATTTCCTTGACGGAGTCACCTAGTGCAG”, the binding signal was 3340 fluorescence intensity (a.u.).
For “TGGCGATGGCGAACGCCTTGAACGGCATCGCGAACGCCGCCGGAGTCACCTAGTGCAG”, the binding signal was 3150 fluorescence intensity (a.u.).
In the case of “TCGCCATGGACGCCCATCCACTTGTCACGCACCATACACACGGAGTCACCTAGTGCAG”, the binding signal is reported as 3960 fluorescence intensity (a.u.).
In the case of “CACATGCCTAGCCGCCGCCGGTCGCCTCACTTCCCTAGCCCGGAGTCACCTAGTGCAG”, the binding signal is reported as 31800 fluorescence intensity (a.u.).
With “TTGCATTGCCACGGGAACGTGTGGTGGTGGTGGATCGGTACGGAGTCACCTAGTGCAG” the binding signal was 3540 fluorescence intensity (a.u.).
“ATTGCTAACAGATAGTGAATGTCACGTGTTACTTCGTTAGCGGAGTCACCTAGTGCAG” was tested, and the binding signal was 3230 fluorescence intensity (a.u.).
For “ATTGTTCGATGTGCTCCAACTCAGCAAAGTGGTGCATGCACGGAGTCACCTAGTGCAG”, the binding signal was 6480 fluorescence intensity (a.u.).
For “CCTCTCGTGGCATCGCATCGCATCGTGTCCTCTGCGACTGCGGAGTCACCTAGTGCAG”, the binding signal was 3630 fluorescence intensity (a.u.).
In the case of “GGACCCCACACCGCCTCGTCTCGTGAACCGGCGCTACTACCGGAGTCACCTAGTGCAG”, the binding signal is reported as 3190 fluorescence intensity (a.u.).
With “CCATCACCTCGTCGTCCCCGTCACCGCGCCTCTCCCGCTGCGGAGTCACCTAGTGCAG” the binding signal was 3780 fluorescence intensity (a.u.).
With “CAGACGATCTCCCGCTGACGCGTGGGCCCCACCTCTCCTCCGGAGTCACCTAGTGCAG” the binding signal was 6480 fluorescence intensity (a.u.).
For “GGTCTCCAAGTTGCGCAATATTTAAACCAGCAGGCGTGGTCGGAGTCACCTAGTGCAG”, the binding signal was 31500 fluorescence intensity (a.u.).
